According to the supplement of paper PMC7666118:
The list shows a part of the results.

Amino acid sequences for entries named in this document (tags omitted). A change or cut given only in a name is not applied to a line headed by its entry.
UniProt O95881: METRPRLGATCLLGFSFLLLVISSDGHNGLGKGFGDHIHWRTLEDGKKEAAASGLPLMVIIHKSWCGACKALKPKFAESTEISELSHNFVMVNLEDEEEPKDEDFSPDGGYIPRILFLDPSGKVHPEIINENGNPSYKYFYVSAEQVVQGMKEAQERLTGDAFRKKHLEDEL
UniProt Q9UDW1: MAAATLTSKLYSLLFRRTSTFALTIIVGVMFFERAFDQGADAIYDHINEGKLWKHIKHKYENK
UniProt Q9H1J1: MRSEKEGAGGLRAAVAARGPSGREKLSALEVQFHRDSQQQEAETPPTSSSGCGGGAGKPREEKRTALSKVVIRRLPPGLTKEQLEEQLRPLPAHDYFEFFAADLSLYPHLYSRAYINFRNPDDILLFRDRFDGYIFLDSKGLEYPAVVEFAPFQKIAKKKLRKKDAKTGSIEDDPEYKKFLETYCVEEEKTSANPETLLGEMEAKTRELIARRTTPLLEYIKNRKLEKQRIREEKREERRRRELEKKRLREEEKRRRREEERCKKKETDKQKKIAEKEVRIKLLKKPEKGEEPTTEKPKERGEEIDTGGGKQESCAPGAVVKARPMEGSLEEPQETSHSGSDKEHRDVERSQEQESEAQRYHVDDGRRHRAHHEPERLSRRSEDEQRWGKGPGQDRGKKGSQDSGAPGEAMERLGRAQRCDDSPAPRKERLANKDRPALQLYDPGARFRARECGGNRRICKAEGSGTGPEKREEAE
UniProt Q9Y5U2: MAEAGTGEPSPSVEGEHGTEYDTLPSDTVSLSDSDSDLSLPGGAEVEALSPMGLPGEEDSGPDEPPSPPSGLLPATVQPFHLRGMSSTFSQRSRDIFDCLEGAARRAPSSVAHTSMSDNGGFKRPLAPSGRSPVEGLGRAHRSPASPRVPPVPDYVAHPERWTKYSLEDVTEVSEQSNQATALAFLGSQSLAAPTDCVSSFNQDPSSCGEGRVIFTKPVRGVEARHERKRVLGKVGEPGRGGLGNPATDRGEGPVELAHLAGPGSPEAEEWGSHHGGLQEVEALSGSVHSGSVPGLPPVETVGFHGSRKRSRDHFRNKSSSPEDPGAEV
UniProt Q9NV66: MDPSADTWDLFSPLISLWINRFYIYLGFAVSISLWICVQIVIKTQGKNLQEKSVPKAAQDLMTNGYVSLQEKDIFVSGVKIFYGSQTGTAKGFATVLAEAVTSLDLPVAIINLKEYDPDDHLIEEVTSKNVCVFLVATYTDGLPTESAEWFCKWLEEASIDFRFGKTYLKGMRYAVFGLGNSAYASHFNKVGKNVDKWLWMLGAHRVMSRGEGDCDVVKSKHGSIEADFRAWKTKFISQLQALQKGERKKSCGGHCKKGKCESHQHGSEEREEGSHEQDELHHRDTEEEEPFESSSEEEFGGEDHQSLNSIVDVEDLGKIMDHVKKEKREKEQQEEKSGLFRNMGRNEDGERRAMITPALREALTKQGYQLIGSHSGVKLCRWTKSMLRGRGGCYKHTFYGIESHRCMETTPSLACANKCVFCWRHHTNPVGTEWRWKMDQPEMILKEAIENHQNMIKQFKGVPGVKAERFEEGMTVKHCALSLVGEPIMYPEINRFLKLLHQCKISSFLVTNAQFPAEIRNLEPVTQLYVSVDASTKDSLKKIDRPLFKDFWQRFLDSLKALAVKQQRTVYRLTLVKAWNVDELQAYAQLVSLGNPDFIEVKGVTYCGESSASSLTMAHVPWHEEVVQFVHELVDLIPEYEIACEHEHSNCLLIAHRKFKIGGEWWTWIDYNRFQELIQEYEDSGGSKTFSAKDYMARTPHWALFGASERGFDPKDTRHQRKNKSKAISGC
UniProt Q9BZL1: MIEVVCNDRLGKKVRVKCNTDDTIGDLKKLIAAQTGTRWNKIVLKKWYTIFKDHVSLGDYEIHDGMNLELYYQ
UniProt O00762: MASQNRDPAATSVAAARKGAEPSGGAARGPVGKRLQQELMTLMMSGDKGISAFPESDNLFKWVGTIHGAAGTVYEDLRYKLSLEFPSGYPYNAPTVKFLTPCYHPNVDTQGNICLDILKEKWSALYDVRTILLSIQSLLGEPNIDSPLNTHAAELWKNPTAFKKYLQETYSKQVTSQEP
UniProt Q8IWR1: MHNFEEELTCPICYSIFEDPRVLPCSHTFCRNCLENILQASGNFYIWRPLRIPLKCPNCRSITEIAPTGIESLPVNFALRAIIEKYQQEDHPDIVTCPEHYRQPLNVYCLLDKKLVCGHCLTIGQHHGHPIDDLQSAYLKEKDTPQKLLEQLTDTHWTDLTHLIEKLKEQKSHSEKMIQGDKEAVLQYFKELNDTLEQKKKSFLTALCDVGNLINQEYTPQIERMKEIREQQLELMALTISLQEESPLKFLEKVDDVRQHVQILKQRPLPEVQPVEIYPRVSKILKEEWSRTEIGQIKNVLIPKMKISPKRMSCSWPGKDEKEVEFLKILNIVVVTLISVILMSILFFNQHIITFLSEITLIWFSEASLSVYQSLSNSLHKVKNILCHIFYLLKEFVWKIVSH
UniProt Q9UHP3: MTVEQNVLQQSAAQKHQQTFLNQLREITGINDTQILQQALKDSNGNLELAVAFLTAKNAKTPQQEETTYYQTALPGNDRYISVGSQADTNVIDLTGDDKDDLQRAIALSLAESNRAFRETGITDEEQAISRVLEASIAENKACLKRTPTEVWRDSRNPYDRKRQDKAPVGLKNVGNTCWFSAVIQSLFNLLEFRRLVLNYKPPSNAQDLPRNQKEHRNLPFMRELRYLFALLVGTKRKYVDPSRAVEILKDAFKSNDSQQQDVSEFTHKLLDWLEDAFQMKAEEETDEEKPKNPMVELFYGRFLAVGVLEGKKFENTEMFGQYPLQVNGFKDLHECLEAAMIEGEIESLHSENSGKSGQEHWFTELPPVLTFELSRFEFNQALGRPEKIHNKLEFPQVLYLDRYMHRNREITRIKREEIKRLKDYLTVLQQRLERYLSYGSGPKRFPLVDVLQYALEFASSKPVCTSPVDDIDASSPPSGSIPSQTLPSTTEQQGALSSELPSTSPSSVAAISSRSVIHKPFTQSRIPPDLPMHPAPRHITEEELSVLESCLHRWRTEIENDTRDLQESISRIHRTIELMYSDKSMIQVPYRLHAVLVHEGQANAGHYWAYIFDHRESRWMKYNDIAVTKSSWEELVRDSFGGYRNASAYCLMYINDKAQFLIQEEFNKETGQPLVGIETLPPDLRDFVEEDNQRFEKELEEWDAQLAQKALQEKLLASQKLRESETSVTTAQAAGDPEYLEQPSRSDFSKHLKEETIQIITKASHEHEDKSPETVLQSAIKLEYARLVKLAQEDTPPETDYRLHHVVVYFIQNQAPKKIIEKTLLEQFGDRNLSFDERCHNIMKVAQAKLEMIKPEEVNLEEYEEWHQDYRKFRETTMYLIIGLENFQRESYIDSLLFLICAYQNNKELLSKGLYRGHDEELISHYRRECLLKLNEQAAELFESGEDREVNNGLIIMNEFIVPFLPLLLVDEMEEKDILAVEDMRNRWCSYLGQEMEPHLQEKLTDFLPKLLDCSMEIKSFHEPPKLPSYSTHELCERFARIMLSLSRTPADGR
UniProt Q9C0B0: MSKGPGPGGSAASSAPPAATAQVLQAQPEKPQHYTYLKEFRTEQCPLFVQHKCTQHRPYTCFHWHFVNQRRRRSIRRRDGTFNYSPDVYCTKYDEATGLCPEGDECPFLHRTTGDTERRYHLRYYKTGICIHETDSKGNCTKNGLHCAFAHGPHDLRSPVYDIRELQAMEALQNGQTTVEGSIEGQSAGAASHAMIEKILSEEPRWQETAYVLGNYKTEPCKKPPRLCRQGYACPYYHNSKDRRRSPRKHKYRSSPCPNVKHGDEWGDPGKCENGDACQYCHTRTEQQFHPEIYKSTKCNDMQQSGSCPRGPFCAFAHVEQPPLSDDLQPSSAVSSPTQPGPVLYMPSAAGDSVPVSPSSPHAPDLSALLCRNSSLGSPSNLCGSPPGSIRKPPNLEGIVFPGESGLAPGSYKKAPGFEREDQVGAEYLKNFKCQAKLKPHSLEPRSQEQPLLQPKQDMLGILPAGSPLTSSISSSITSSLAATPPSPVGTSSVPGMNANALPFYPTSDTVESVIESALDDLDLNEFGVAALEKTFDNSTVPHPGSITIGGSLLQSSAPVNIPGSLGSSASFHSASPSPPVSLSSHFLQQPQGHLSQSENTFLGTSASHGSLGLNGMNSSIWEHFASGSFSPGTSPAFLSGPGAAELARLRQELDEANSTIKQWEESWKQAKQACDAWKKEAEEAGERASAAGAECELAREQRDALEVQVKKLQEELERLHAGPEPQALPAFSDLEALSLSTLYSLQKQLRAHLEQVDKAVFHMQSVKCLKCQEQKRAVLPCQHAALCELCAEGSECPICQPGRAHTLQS
UniProt Q96RT7, whole entry: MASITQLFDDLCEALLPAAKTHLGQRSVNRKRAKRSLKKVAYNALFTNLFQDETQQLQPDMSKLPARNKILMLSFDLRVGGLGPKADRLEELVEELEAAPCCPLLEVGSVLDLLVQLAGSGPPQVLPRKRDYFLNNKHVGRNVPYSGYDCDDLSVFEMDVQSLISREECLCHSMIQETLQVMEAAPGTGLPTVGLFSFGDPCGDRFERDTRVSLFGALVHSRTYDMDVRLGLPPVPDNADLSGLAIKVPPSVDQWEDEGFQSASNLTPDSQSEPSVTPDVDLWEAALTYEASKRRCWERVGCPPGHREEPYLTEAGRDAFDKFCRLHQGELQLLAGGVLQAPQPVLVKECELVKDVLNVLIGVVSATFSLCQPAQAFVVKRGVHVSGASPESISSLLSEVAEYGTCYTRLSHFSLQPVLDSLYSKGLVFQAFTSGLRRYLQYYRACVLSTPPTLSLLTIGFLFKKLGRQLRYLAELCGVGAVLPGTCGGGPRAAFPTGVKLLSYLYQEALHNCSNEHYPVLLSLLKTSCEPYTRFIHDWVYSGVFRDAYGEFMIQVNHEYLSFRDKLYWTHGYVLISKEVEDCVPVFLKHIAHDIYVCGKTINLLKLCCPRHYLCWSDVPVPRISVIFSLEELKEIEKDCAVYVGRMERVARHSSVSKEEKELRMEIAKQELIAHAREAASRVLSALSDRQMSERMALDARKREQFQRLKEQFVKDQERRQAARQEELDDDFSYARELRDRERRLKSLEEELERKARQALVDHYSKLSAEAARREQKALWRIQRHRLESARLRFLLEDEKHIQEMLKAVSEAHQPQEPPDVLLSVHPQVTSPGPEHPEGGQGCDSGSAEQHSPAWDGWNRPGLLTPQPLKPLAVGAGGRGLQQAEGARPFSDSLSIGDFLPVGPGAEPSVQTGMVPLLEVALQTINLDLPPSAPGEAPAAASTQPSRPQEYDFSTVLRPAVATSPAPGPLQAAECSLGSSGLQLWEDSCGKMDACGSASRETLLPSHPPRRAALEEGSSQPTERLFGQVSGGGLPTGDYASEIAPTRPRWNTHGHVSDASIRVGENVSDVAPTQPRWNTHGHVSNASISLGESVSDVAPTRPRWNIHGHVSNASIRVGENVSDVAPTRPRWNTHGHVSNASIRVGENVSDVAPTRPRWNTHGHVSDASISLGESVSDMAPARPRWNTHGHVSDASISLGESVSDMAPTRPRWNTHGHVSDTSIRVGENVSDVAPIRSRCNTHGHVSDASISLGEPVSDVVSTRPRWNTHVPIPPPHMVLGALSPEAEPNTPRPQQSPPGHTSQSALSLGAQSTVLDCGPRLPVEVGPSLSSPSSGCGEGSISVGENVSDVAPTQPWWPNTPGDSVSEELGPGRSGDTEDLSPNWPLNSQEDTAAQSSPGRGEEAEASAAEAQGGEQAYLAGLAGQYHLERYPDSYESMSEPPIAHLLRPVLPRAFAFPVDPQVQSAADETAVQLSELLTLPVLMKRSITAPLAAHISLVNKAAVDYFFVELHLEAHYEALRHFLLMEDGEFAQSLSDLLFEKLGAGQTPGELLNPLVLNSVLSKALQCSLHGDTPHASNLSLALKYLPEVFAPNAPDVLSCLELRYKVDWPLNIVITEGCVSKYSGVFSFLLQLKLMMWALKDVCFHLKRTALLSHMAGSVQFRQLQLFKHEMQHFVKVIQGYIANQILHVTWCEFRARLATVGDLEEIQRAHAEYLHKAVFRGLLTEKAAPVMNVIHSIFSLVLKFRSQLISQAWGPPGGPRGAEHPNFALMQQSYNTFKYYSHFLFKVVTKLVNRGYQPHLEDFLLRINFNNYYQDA
UniProt Q15645: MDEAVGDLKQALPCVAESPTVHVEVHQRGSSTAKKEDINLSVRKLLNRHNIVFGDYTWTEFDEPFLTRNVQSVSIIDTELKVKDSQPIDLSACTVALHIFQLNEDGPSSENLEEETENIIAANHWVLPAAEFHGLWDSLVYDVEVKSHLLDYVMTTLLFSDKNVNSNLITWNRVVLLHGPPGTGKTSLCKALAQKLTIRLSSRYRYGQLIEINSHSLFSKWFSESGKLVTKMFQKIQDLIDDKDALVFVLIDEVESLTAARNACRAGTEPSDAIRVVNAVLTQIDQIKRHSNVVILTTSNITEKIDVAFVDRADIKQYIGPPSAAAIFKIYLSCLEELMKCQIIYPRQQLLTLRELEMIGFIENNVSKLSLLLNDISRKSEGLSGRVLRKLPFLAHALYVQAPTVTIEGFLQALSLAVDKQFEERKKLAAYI

Compound: COc1ccc(Cn2ccc3ccc(C(=O)NO)cc32)cc1
Test: dose-dependent thermal stabilisation call (2D-TPP, DLPTP, 10% FDR) (binary (1 = stabilised)); higher = stabilised by the compound
Settings: system: HL-60 intact cells; concentration range 0.04-10 µM

Target | dose-dependent thermal stabilisation call
UQCRB (UniProt P14927) | inactive: 0
UCK2 (UniProt Q9BZX2) | inactive: 0
UAP1 (UniProt Q16222) | inactive: 0
UBE2Q1 (UniProt Q7Z7E8) | inactive: 0
TPT1 (UniProt P13693) | inactive: 0
TSFM (UniProt P43897) | inactive: 0
TRMT61B (UniProt Q9BVS5) | inactive: 0
TRIM32 (UniProt Q13049) | inactive: 0
TRAPPC6A (UniProt O75865) | inactive: 0
TUBG1 (UniProt P23258) | inactive: 0
TRADD (UniProt Q15628) | inactive: 0
USP20 (UniProt Q9Y2K6) | inactive: 0
UBE2CBP (UniProt Q7Z6J8) | inactive: 0
TXNDC12 (UniProt O95881) | inactive: 0
TRIO (UniProt O75962) | inactive: 0
UCRC (UniProt Q9UDW1) | inactive: 0
TTL (UniProt Q8NG68) | inactive: 0
UNC45A (UniProt Q9H3U1) | inactive: 0
UBXN4 (UniProt Q92575) | inactive: 0
TUBGCP2 (UniProt Q9BSJ2) | inactive: 0
UBE2G2 (UniProt P60604) | inactive: 0
TRMT1 (UniProt Q9NXH9) | active: 1
TTC19 (UniProt Q6DKK2) | inactive: 0

Target | dose-dependent thermal stabilisation call
TRIP6 (UniProt Q15654) | inactive: 0
UNC84B (UniProt Q9UH99) | inactive: 0
TRMT61A (UniProt Q96FX7) | inactive: 0
UHRF1BP1L (UniProt A0JNW5) | inactive: 0
TWSG1 (UniProt Q9GZX9) | inactive: 0
USP5 (UniProt P45974) | inactive: 0
UBL7 (UniProt Q96S82) | inactive: 0
UBE2S (UniProt Q16763) | inactive: 0
UCK1 (UniProt Q9HA47) | inactive: 0
TRIM4 (UniProt Q9C037) | inactive: 0
TXNDC9 (UniProt O14530) | inactive: 0
TRIM11 (UniProt Q96F44) | inactive: 0
UPRT (UniProt Q96BW1) | inactive: 0
UBE2G1 (UniProt P62253) | inactive: 0
TTC37 (UniProt Q6PGP7) | inactive: 0
USP47 (UniProt Q96K76) | inactive: 0
TRMU (UniProt O75648) | inactive: 0
UPF3A (UniProt Q9H1J1) | inactive: 0
TTC9C (UniProt Q8N5M4) | inactive: 0
UBE2D2 (UniProt P62837) | inactive: 0
TRDMT1 (UniProt O14717) | inactive: 0
TRAP1 (UniProt Q12931) | inactive: 0
TRAF3IP3 (UniProt Q9Y228) | inactive: 0

Target | dose-dependent thermal stabilisation call
TTC27 (UniProt Q6P3X3) | inactive: 0
UBA1 (UniProt P22314) | inactive: 0
TRRAP (UniProt Q9Y4A5) | inactive: 0
TSC22D4 (UniProt Q9Y3Q8) | inactive: 0
TSSC4 (UniProt Q9Y5U2) | inactive: 0
TRIM13 (UniProt O60858) | inactive: 0
TYW1 (UniProt Q9NV66) | inactive: 0
TSR1 (UniProt Q2NL82) | inactive: 0
TTC7A (UniProt Q9ULT0) | inactive: 0
TRUB1 (UniProt Q8WWH5) | inactive: 0
USP19 (UniProt O94966) | inactive: 0
UBXN1 (UniProt Q04323) | inactive: 0
UBL5 (UniProt Q9BZL1) | inactive: 0
UBQLN1 (UniProt Q9UMX0) | inactive: 0
TSPAN4 (UniProt O14817) | inactive: 0
TSPAN3 (UniProt O60637) | inactive: 0
UBE3B (UniProt Q7Z3V4) | inactive: 0
UBR4 (UniProt Q5T4S7) | inactive: 0
UBR1 (UniProt Q8IWV7) | inactive: 0
USP42 (UniProt Q9H9J4) | inactive: 0
UGCGL2 (UniProt Q9NYU1) | inactive: 0
UBE2L3 (UniProt P68036) | inactive: 0
UNC13D (UniProt Q70J99) | inactive: 0

Target | dose-dependent thermal stabilisation call
TTYH3 (UniProt Q9C0H2) | inactive: 0
U2AF1 (UniProt Q01081) | inactive: 0
UBR2 (UniProt Q8IWV8) | inactive: 0
TRIP11 (UniProt Q15643) | inactive: 0
UBE2J1 (UniProt Q9Y385) | inactive: 0
UBE2C (UniProt O00762) | inactive: 0
TSPAN14 (UniProt Q8NG11) | inactive: 0
UFD1L (UniProt Q92890) | inactive: 0
TTC4 (UniProt O95801) | inactive: 0
TTC35 (UniProt Q15006) | inactive: 0
TRIM59 (UniProt Q8IWR1) | inactive: 0
UBAP2 (UniProt Q5T6F2) | inactive: 0
USP25 (UniProt Q9UHP3) | inactive: 0
USP24 (UniProt Q9UPU5) | inactive: 0
TRPM2 (UniProt O94759) | inactive: 0
UBR3 (UniProt Q6ZT12) | inactive: 0
USP15 (UniProt Q9Y4E8) | inactive: 0
TTC15 (UniProt Q8WVT3) | inactive: 0
UPF2 (UniProt Q9HAU5) | inactive: 0
TRAPPC1 (UniProt Q9Y5R8) | inactive: 0
TXNL4A (UniProt P83876) | inactive: 0
UROD (UniProt P06132) | inactive: 0
TTRAP (UniProt O95551) | inactive: 0

32 successive entries already listed:
Target | dose-dependent thermal stabilisation call
UBL5 (UniProt Q9BZL1) | inactive: 0
UBQLN1 (UniProt Q9UMX0) | inactive: 0
TSPAN4 (UniProt O14817) | inactive: 0
TSPAN3 (UniProt O60637) | inactive: 0
UBE3B (UniProt Q7Z3V4) | inactive: 0
UBR4 (UniProt Q5T4S7) | inactive: 0
UBR1 (UniProt Q8IWV7) | inactive: 0
USP42 (UniProt Q9H9J4) | inactive: 0
UGCGL2 (UniProt Q9NYU1) | inactive: 0
UBE2L3 (UniProt P68036) | inactive: 0
UNC13D (UniProt Q70J99) | inactive: 0
TTYH3 (UniProt Q9C0H2) | inactive: 0
U2AF1 (UniProt Q01081) | inactive: 0
UBR2 (UniProt Q8IWV8) | inactive: 0
TRIP11 (UniProt Q15643) | inactive: 0
UBE2J1 (UniProt Q9Y385) | inactive: 0
UBE2C (UniProt O00762) | inactive: 0
TSPAN14 (UniProt Q8NG11) | inactive: 0
UFD1L (UniProt Q92890) | inactive: 0
TTC4 (UniProt O95801) | inactive: 0
TTC35 (UniProt Q15006) | inactive: 0
TRIM59 (UniProt Q8IWR1) | inactive: 0
UBAP2 (UniProt Q5T6F2) | inactive: 0
USP25 (UniProt Q9UHP3) | inactive: 0
USP24 (UniProt Q9UPU5) | inactive: 0
TRPM2 (UniProt O94759) | inactive: 0
UBR3 (UniProt Q6ZT12) | inactive: 0
USP15 (UniProt Q9Y4E8) | inactive: 0
TTC15 (UniProt Q8WVT3) | inactive: 0
UPF2 (UniProt Q9HAU5) | inactive: 0
TRAPPC1 (UniProt Q9Y5R8) | inactive: 0
TXNL4A (UniProt P83876) | inactive: 0

Next part

Target | dose-dependent thermal stabilisation call
UHRF1 (UniProt Q96T88) | inactive: 0
TSC22D2 (UniProt O75157) | inactive: 0
TRAFD1 (UniProt O14545) | inactive: 0
TRIP12 (UniProt Q14669) | inactive: 0
TRAPPC6B (UniProt Q86SZ2) | inactive: 0
USP3 (UniProt Q9Y6I4) | inactive: 0
TRIM33 (UniProt Q9UPN9) | inactive: 0
UBP1 (UniProt Q9NZI7) | inactive: 0
UQCRC2 (UniProt P22695) | inactive: 0
TTK (UniProt P33981) | inactive: 0
UNK (UniProt Q9C0B0) | inactive: 0
TRIM27 (UniProt P14373) | inactive: 0
USF1 (UniProt P22415) | inactive: 0
UMPS (UniProt P11172) | inactive: 0
UBE2N (UniProt P61088) | inactive: 0
TUBGCP6 (UniProt Q96RT7) | inactive: 0
TRIP13 (UniProt Q15645) | inactive: 0
URB2 (UniProt Q14146) | inactive: 0
TTC33 (UniProt Q6PID6) | inactive: 0
TRMT2B (UniProt Q96GJ1) | inactive: 0
TSPO | inactive: 0
